Source: PubChem BioAssay (NCATS)
Values joined by “and” are separate entries in the source; they are usually repeats but may differ in a detail not shown here. Equal entries are not always repeated. Most of the hits are listed elsewhere, so they are rarer here than in the full data. Results filed as inconclusive are left out. Active and inactive are the calls of the source. Calls come from the whole dose curve; as a rule, active = well fitted inhibition curve with a large enough effect; inconclusive = small, poorly fitted or top-dose-only effect; inactive = no such curve, though single readings can be large or run the other way.

Test system: not listed separately
Assay: qHTS assay for measurement of the activity of small molecule inhibitors on Zika virus induced Caspase-3 activity in human iPSC derived neural progenitor cells (hNPCs) (AID 1224857); note: % of control where 0% means no effect; nearly all actives have a fitted effect of over 65% in size
Conditions: hNPCs ZIKV-induced caspase-3/7, Caspase-Glo luminescence, 6 h; at 45.7 µM (top of the series)
Method in brief: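 Caspase-3/7 induction by a 6-hour ZIKV infection was quantified with a luminescent Caspase-Glo 3/7 reagent incubated 30 minutes at room temperature. Compounds were preincubated with hNPCs for 1 hour; inhibition was calculated against uninfected and infected control wells.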

Row | Structure (SMILES) | activity change, negative = inhibition
1 | O=C(CCCCCCC(=O)Nc1ccccc1)NO | inactive: -10.3% and inactive: 24.3%
2 | Oc1cc2c(c(Cl)c1O)CCNCC2c1ccccc1 (configuration not stated) | inactive: 0.102%
3 | CCS(=O)(=O)N1CC(CC#N)(n2cc(-c3ncnc4[nH]ccc34)cn2)C1 | inactive: -7.47%

Test system: not listed separately
Assay: qHTS assay for measurement of the activity of small molecule inhibitors on Zika virus induced Caspase-3 activity in human astrocytoma cells (AID 1224859);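 note: plate controls were ZIKV-infected untreated cells for no effect and uninfected cells for full effect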
Conditions: SNB-19 ZIKV-induced caspase-3/7, luminescence, 6 h; at 45.7 µM (top of the series)
Method in brief: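 In SNB-19 cells plated at 250 cells/well and grown 16-20 h, compounds were applied 1 h before ZIKV (2 FFU/cell). Six hours later caspase-3/7 luminescence was recorded.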

Row | Structure (SMILES) | activity change, negative = inhibition
4 | O=C(CCCCCCC(=O)Nc1ccccc1)NO | inactive: -2.39% and inactive: 10.6%
5 | Oc1cc2c(c(Cl)c1O)CCNCC2c1ccccc1 (configuration not stated) | inactive: 8.8%
6 | CCS(=O)(=O)N1CC(CC#N)(n2cc(-c3ncnc4[nH]ccc34)cn2)C1 | inactive: 40%

Test system: not listed separately
Assay: NS1 protein of Zika virus - qHTS assay to identify small molecule inhibitors in human HEK 293 cells (AID 1347053);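 note: plate controls were infected untreated cells for no effect and uninfected cells for full effect; nearly all actives have a fitted effect of over 55% in size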
Conditions: HEK293 ZIKV MR766 infection, NS1 TR-FRET, 24 h; at 46.1 µM (top of the series)
Method in brief: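 Readout was TR-FRET using paired anti-NS1 antibodies after 24 h infection of HEK 293 cells with ZIKV MR766 (MOI = 0.5). Compound preceded virus by 1 h; reduced signal reflects lower NS1 expression.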

Row | Structure (SMILES) | activity change, negative = inhibition
7 | O=C(CCCCCCC(=O)Nc1ccccc1)NO | inactive: -1.65% and inactive: -18.3%
8 | Oc1cc2c(c(Cl)c1O)CCNCC2c1ccccc1 (configuration not stated) | inactive: -4.66%
9 | CCS(=O)(=O)N1CC(CC#N)(n2cc(-c3ncnc4[nH]ccc34)cn2)C1 | inactive: 14.8%

Test system: Zika virus NS2B-NS3 protease (unlinked complex)
Assay: Primary screen GU Rhodamine qHTS for Zika virus inhibitors: Unlinked NS2B-NS3 protease assay (AID 1347159); note: % is set by controls: 0 for no effect and ±100 for the full control effect; nearly all actives have a fitted effect of over 60% in size
Conditions: Recombinant ZIKV NS2B-NS3 protease, Rhodamine110 substrate fluorescence; at 107 µM (top of the series)
Method in brief: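 In dose–response format, inhibition of unlinked protease (25 nM) was measured with 1.5 microM bis-peptide Rhodamine110 substrate. Aprotinin served as the intraplate control.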

Row | Structure (SMILES) | activity change, negative = inhibition
10 | O=C(CCCCCCC(=O)Nc1ccccc1)NO | inactive: 0.755%
11 | CCN1CCN(Cc2ccc(NC(=O)Nc3ccc(Oc4cc(NC)ncn4)cc3)cc2C(F)(F)F)CC1 | inactive: 93.6%
12 | CCS(=O)(=O)N1CC(CC#N)(n2cc(-c3ncnc4[nH]ccc34)cn2)C1 | inactive: 52.9%
13 | COc1cc2nc(N3CCCC3)nc(NCCCCCN3CCCC3)c2cc1OC | inactive: 33.5%

Test system: Zika virus NS2B-NS3 protease (linked construct)
Assay: Primary screen NINDS Rhodamine qHTS for Zika virus inhibitors (AID 1347160); note: % is set by controls: 0 for no effect and ±100 for the full control effect; nearly all actives have a fitted effect of over 55% in size
Conditions: purified NS2B-NS3 protease, Rhodamine110 substrate fluorescence; at 57.1 µM (top of the series)
Method in brief: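 Each compound, titrated, sat 15 min with 25 nM linked protease before 1.5 microM Rhodamine110 substrate went in. Fluorescence gain over the next 15 min, in pH 8.0 Tris with Tween 20, gave Hill-fitted curves.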

Row | Structure (SMILES) | activity change, negative = inhibition
14 | O=C(CCCCCCC(=O)Nc1ccccc1)NO | inactive: 16.4%
15 | CCN1CCN(Cc2ccc(NC(=O)Nc3ccc(Oc4cc(NC)ncn4)cc3)cc2C(F)(F)F)CC1 | inactive: 10.4%
16 | CCS(=O)(=O)N1CC(CC#N)(n2cc(-c3ncnc4[nH]ccc34)cn2)C1 | inactive: 9.16%
17 | COc1cc2nc(N3CCCC3)nc(NCCCCCN3CCCC3)c2cc1OC | inactive: 29%
